Source: patent publication US8119681B2, “2-[1-phenyl-5-hydroxy or methoxy-4alpha-methyl-hexahydrocyclopenta [ƒ]indazole-5-YL]ethyl phenyl derivatives as glucocorticoid receptor ligands” (Merck Sharp & Dohme Corp., priority 2006, dated 2012)
Some of these results come from one statement about several compounds together. For part of these data: For at least one compound, name, drawing or mass did not settle the structure.

Columns and labels:
[1] = target: T1, glucocorticoid receptor (GR) (Homo sapiens, UniProt P04150); experiment: Ligand binding assay (GR BIND), 3H-dexamethasone displacement, HeLa cell lysate; details: calculated using DEX as a reference
T1 construct: endogenous in cells; host or cells: HeLa (ATCC) cell lysate supernatant
T1 sequence (P04150 1-777): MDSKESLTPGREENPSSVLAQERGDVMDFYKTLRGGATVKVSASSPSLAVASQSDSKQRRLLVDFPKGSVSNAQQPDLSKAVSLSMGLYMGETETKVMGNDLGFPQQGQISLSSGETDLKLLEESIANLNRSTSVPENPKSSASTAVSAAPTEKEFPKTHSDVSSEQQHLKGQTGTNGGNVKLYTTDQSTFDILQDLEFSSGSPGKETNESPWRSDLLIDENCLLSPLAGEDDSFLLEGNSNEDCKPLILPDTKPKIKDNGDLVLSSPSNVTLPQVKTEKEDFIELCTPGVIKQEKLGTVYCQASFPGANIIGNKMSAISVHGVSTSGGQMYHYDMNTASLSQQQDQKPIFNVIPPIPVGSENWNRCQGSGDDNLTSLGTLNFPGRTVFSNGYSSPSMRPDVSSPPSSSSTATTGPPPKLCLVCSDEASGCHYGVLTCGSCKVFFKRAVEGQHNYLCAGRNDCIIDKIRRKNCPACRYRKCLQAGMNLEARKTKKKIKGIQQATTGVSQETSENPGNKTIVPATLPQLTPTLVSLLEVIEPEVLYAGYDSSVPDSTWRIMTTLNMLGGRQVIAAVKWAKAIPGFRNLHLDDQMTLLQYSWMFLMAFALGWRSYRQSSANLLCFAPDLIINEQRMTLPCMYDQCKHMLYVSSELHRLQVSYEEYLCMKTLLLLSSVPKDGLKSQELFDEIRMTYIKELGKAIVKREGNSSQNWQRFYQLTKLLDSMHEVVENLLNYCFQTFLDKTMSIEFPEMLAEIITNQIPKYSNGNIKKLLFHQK
Method in brief: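 HeLa cell lysate supernatant in TEGM (pH 7.2, molybdate) incubated overnight at 4 °C with 3H-dexamethasone trace (6 nM stock) and serially diluted compound, 2% EtOH final. Bound receptor captured on hydroxylapatite, filtered and counted by scintillation; IC50 calculated with dexamethasone as reference.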

[2] = target: T2, human GR (Homo sapiens, UniProt P04150); experiment: Trans-Activation Modulation of Glucocorticoid Receptor (GRAMMER), MMTV-LUC reporter gene; format: cell-based; design: endogenous in cells; details: GRAMMER versus GITAR
T2 sequence (P04150 1-777): T1 sequence (P04150 1-777)

Row | SMILES | IC50 [1] | maximal transactivation activity compared with maximal transrepression activity [2]
1 | COC(=O)C1(NC(=O)c2ccccc2CC[C@]2(O)CCC3=Cc4c(cnn4-c4ccc(F)cc4)C[C@@]32C)CC1 [Example 26, methyl 1-[(2-{2-[(4αS,5R)-1-(4-fluorophenyl)-5-hydroxy-4α-methyl-1,4,4α,5,6,7-hexahydrocyclopenta[f]indazol-5-yl]ethyl}benzoyl)amino]cyclopropanecarboxylate] | < 1000 nM | maximal transactivation activity less then maximal transrepression activity
2 | C[C@]12Cc3cnn(-c4ccc(F)c(F)c4)c3C=C1CC[C@@]2(O)CCc1ccccc1C(N)=O [Example 172, 2-{2-[(4αS,5R)-1-(3,4-difluorophenyl)-5-hydroxy-4α-methyl-1,4,4α,5,6,7-hexahydrocyclopenta[f]indazol-5-yl]ethyl}benzamide] | < 1000 nM | maximal transactivation activity less then maximal transrepression activity
3 | C[C@]12Cc3cnn(-c4ccc(F)cc4)c3C=C1CC[C@@]2(O)CCc1ccccc1C(=O)N1CCC(F)(F)C1 [Example 74, (4αS,5R)-5-(2-{2-[(3,3-difluoropyrrolidin-1-yl)carbonyl]phenyl}ethyl)-1-(4-fluorophenyl)-4α-methyl-1,4,4α,5,6,7-hexahydrocyclopenta[f]indazol-5-ol] | < 1000 nM | maximal transactivation activity less then maximal transrepression activity
4 | CCOC(=O)Nc1c(F)cccc1CC[C@]1(O)CCC2=Cc3c(cnn3-c3ccc(F)cc3)C[C@@]21C [Example 122, ethyl (2-fluoro-6-{2-[(4αS,5R)-1-(4-fluorophenyl)-5-hydroxy-4α-methyl-1,4,4α,5,6,7-hexahydrocyclopenta[f]indazol-5-yl]ethyl}phenyl)carbamate] | < 1000 nM | maximal transactivation activity less then maximal transrepression activity
5 | C[C@]12Cc3cnn(-c4ccc(F)cc4)c3C=C1CC[C@@]2(O)CCc1cc(F)ccc1NS(=O)(=O)CC(F)(F)F [Example 119, 2,2,2-trifluoro-N-(4-fluoro-2-{2-[(4αS,5R)-1-(4-fluorophenyl)-5-hydroxy-4α-methyl-1,4,4α,5,6,7-hexahydrocyclopenta[f]indazol-5-yl]ethyl}phenyl)ethanesulfonamide] | < 1000 nM | maximal transactivation activity less then maximal transrepression activity
6 | C[C@]12Cc3cnn(-c4ccc(F)cc4)c3C=C1CC[C@@]2(O)CCc1ccccc1CNC(=O)C1CC1 [Example 4] | < 1000 nM | maximal transactivation activity less then maximal transrepression activity
7 | CC(C)NC(=O)Nc1ccccc1CC[C@]1(O)CCC2=Cc3c(cnn3-c3ccc(F)cc3)C[C@@]21C [Example 129, N-(2-{2-[(4αS,5R)-1-(4-fluorophenyl)-5-hydroxy-4α-methyl-1,4,4α,5,6,7-hexahydrocyclopenta[f]indazol-5-yl]ethyl}phenyl)-N′-isopropylurea] | < 1000 nM | maximal transactivation activity less then maximal transrepression activity
8 | C=CCNC(=O)c1ccccc1CC[C@]1(O)CCC2=Cc3c(cnn3-c3ccc(F)cc3)C[C@@]21C [Example 33, N-allyl-2-{2-[(4αS,5R)-1-(4-fluorophenyl)-5-hydroxy-4α-methyl-1,4,4α,5,6,7-hexahydrocyclopenta[f]indazol-5-yl]ethyl}benzamide] | < 1000 nM | maximal transactivation activity less then maximal transrepression activity
9 | C[C@]12Cc3cnn(-c4ccc(F)cc4)c3C=C1CC[C@@]2(O)CCc1cccc(F)c1CNS(=O)(=O)c1cccnc1 [Example 82, N-(2-fluoro-6-{2-[(4αS,5R)-1-(4-fluorophenyl)-5-hydroxy-4α-methyl-1,4,4α,5,6,7-hexahydrocyclopenta[f]indazol-5-yl]ethyl}benzyl)pyridine-3-sulfonamide] | < 1000 nM | maximal transactivation activity less then maximal transrepression activity
10 | C[C@]12Cc3cnn(-c4ccc(F)cc4)c3C=C1CC[C@@]2(O)CCc1cccc(F)c1C(=O)N1CC[C@H](F)C1 [Example 69, (4αS,5R)-5-[2-(3-fluoro-2-{[(3S)-3-fluoropyrrolidin-1-yl]carbonyl}phenyl)ethyl]-1-(4-fluorophenyl)-4α-methyl-1,4,4α,5,6,7-hexahydrocyclopenta[f]indazol-5-ol] | < 1000 nM | maximal transactivation activity less then maximal transrepression activity
11 | CC(=O)Nc1ccccc1CC[C@]1(O)CCC2=Cc3c(cnn3-c3ccc(F)cc3)C[C@@]21C [Example 14, N-(2-{2-[(4αS,5R)-1-(4-fluorophenyl)-5-hydroxy-4α-methyl-1,4,4α,5,6,7-hexahydrocyclopenta[f]indazol-5-yl]ethyl}phenyl)acetamide] | < 1000 nM | maximal transactivation activity less then maximal transrepression activity
12 | CC(C)(C)CNC(=O)c1ccccc1CC[C@]1(O)CCC2=Cc3c(cnn3-c3ccc(F)cc3)C[C@@]21C [Example 25, N-(2,2-dimethylpropyl)-2-{2-[(4αS,5R)-1-(4-fluorophenyl)-5-hydroxy-4α-methyl-1,4,4α,5,6,7-hexahydrocyclopenta[f]indazol-5-yl]ethyl}benzamide] | < 1000 nM | maximal transactivation activity less then maximal transrepression activity
13 | C=C(C)CNC(=O)c1c(F)cccc1CC[C@]1(O)CCC2=Cc3c(cnn3-c3ccc(F)cc3)C[C@@]21C [Example 44, 2-fluoro-6-{2-[(4αS,5R)-1-(4-fluorophenyl)-5-hydroxy-4α-methyl-1,4,4α,5,6,7-hexahydrocyclopenta[f]indazol-5-yl]ethyl}-N-(2-methylprop-2-en-1-yl)benzamide] | < 1000 nM | maximal transactivation activity less then maximal transrepression activity
14 | C[C@]12Cc3cnn(-c4ccc(F)cc4)c3C=C1CC[C@@]2(O)CCc1cccc(F)c1C(=O)N1CCC1 [Example 65, (4αS,5R)-5-{2-[2-(azetidin-1-ylcarbonyl)-3-fluorophenyl]ethyl}-1-(4-fluorophenyl)-4α-methyl-1,4,4α,5,6,7-hexahydrocyclopenta[f]indazol-5-ol] | < 1000 nM | maximal transactivation activity less then maximal transrepression activity
15 | C[C@]12Cc3cnn(-c4ccc(F)cc4)c3C=C1CC[C@@]2(O)CCc1ccc(F)cc1C#N [Example 163, 5-fluoro-2-{2-[(4αS,5R)-1-(4-fluorophenyl)-5-hydroxy-4α-methyl-1,4,4α,5,6,7-hexahydrocyclopenta[f]indazol-5-yl]ethyl}benzonitrile] | < 1000 nM | maximal transactivation activity less then maximal transrepression activity
